Test results: PMC12040169 (PLOS Biology, 2025)
This is one part of the list.

test system: T1, CTL2-GFP (C. trachomatis L2/434/Bu, GFP-expressing); design: species or system HeLa; Intracellular C. trachomatis growth in HeLa cells, bulk GFP fluorescence relative to DMSO; settings: bulk GFP, single well; 28.5 h, 10 µM; inhibitor
T1 construct: L2/434/Bu, GFP-expressing

Row | SMILES | % of control remaining [%]
1 | COc1ccc(NC(=O)CSc2nc(O)cc(=O)[nH]2)cc1 [CBK261747] | 112.732
2 | CN(C)CC(C)(C)CNC(=O)c1ccccc1-n1cccc1 [CBK149600] | 124.751
3 | CSCCC(=O)NCc1c(-c2ccccc2)noc1C [CBK144092] | 104.1
4 | CC(C(=O)Nc1ccc(S(N)(=O)=O)cc1)N1CCCc2ccccc21 (stereo not shown) [CBK306108] | 77.2524
5 | CCOC(=O)NC(=O)c1cn(N2CCOCC2)c(=O)[nH]c1=O [CBK004845] | 109.124
6 | CN(CCCc1cnn(C)c1)c1nc(N)nc2c1CCCC2 [CBK306766] | 69.9402
7 | O=C(c1ccc(-c2cnc3[nH]c(=O)n(C4CCCCC4)c3n2)cc1)N1CCOCC1 [CBK064566] | 185.363
8 | CCOc1ccc(S(=O)(=O)N2CCN(Cc3cc(C(=O)OC)n(C)c3)CC2)c2cccnc12 [CBK062796] | 93.041
9 | Cc1nn(Cc2ccc(Cl)cc2)c(C)c1C(N)C(=O)O (stereo not shown) [CBK286661] | 132.008
10 | O=C(NC1CC1)C1CCN(Cn2nnc3ccccc3c2=S)CC1 [CBK306342] | 94.7244
11 | O=C(c1cc(O)nc2ccccc12)N1CCN(S(=O)(=O)N2CCCC2)CC1 [CBK297898] | 118.795
12 | COc1ccc(CN(/N=N/c2nonc2C)c2nonc2C)cc1[N+](=O)[O-] [CBK262386] | 128.532
13 | Cc1cc(C(=O)C(C)Oc2ccc(-c3nnco3)cc2)c(C)n1-c1ccccc1 (stereo not shown) [CBK297104] | 90.6868
14 | CCCCC(=O)NCCc1ccc(S(N)(=O)=O)cc1 [CBK288360] | 107.147
15 | Cn1cc(CNS(=O)(=O)c2ccc(Br)c(F)c2)cn1 [CBK305539] | 109.704
16 | O=C(O)[C@H]1CN(C(=O)c2ccco2)C[C@@H]1c1ccccc1F [CBK283820] | 144.185
17 | CCCCCNC(=O)NCCC1=CCCCC1 [CBK043796] | 112.782
18 | O=S(=O)(Nc1cc(OC2CCCNC2)c2occc2c1)c1cc(F)ccc1F (stereo not shown) [CBK073996C] | 64.0932
19 | CC(Cn1cc(Cl)cn1)C(=O)NC(C)C1CC2CCC1C2 (stereo not shown) [CBK281650] | 84.2868
20 | COc1ccccc1-c1cnc(N)c(N[C@H](C)c2ccccc2)n1 [CBK063705] | 181.277
21 | O=C(O)CSCC(=O)N1CCN(c2ccc(F)cc2)CC1 [CBK057269] | 149.285
22 | OC[C@H]1O[C@@H](n2cnc3c(Cl)ncnc32)C[C@H]1O [CBK201167] | 108.264
23 | CCCC(=O)c1ccc(S(=O)(=O)N2CCCN(Cc3cc(Br)cs3)CC2)cc1 [CBK062896] | 90.4916
24 | CC(O)CN(Cc1ccc(-c2ccccc2)cc1)Cc1ccc2c(c1)OCO2 (stereo not shown) [CBK286450] | 114.505
25 | COc1cccc2sc(Nc3nc(-c4cccs4)cs3)nc12 [CBK287469] | 77.3664
26 | O=C(CN(c1ccc(I)cc1)S(=O)(=O)c1ccccc1)NCC1CCCO1 (stereo not shown) [CBK266278] | 150.511
27 | CCN(CCO)c1ccc(Nc2nc(-c3ccc(F)c(Cl)c3)cn3ccnc23)cc1 [CBK038042] | 157.747

Row | SMILES | % of control remaining [%]
28 | O=C(c1ncoc1-c1ccc(F)cc1)N1CCSCC1 [CBK282380] | 145.137
29 | COc1cc(S(=O)(=O)NC2CC(C)(C)NC(C)(C)C2)ccc1Br [CBK267908] | 127.126
30 | O=C1N=C(NC23CC4CC(CC(C4)C2)C3)OC1c1ccccc1 (stereo not shown) [CBK105263] | 44.0291
31 | CCCNC(C)C(=O)Nc1c(C)csc1C(=O)O (stereo not shown) [CBK287064] | 129.09
32 | Cn1c(=O)c2c(nc(SCC(=O)O)n2C)n(C)c1=O [CBK262942] | 135.876
33 | OCCCN1CCCN(c2ccnc(OCCN3CCOCC3)n2)CC1 [CBK083808] | 118.869
34 | CC(C)NC(=O)N1CCN2C(=O)N(c3ccccc3)C(=O)[C@@H]2C1 [CBK289579] | 116.821
35 | CSc1nsc(SCC(=O)c2ccc(NC(C)=O)cc2)n1 [CBK268755] | 131.275
36 | Cc1c(CN(C)C(=O)c2cccc(NC(=O)C3CCCO3)c2)cnn1C (stereo not shown) [CBK305416] | 82.1694
37 | C=CCOc1ccc(Cl)cc1CNc1cccc(C(=O)O)c1 [CBK078460] | 113.889
38 | CC(C(=O)Nc1cccc(F)c1)N1CCN(Cc2cccnc2)CC1 (stereo not shown) [CBK305408] | 108.62
39 | COc1cc(CN2CCN(C(=O)c3cccc(Cl)c3)CC2)cc(OC)c1OC [CBK074530] | 87.5358
40 | C/C(=N\NC(=O)CN(c1ccc(C)cc1)S(=O)(=O)c1ccccc1)c1ccc(Cl)cc1 [CBK262229] | 123.581
41 | O=c1[nH]c2ncc(-c3cccc(Br)c3)nc2n1CCc1cccnc1 [CBK064457] | 92.6084
42 | COc1cccc(CN2CCCC(NC(=O)c3cnn(C(C)C)c3)C2)c1 (stereo not shown) [CBK307477] | 122.728
43 | COc1cc(OC)c(NS(=O)(=O)c2cc(C(=O)O)ccc2C)cc1Cl [CBK296105] | 115.861
44 | O=C(c1cnn(-c2cccc(Cl)c2)c1)N1CCOCC1CC(F)F (stereo not shown) [CBK304207] | 96.5012
45 | Cc1ccccc1C(c1cnccn1)N(C)C(=O)C1CCN(S(=O)(=O)C(C)C)CC1 (stereo not shown) [CBK060242] | 113.45
46 | CCc1nc2ccccc2n1C1CCN(C(=O)Cc2cccnc2)CC1 [CBK306389] | 114.148
47 | COc1ccc(Cl)cc1NC(=S)NNC(=O)c1cccnc1 [CBK267161] | 129.06
48 | N#Cc1c(NC(=O)c2cccnc2)sc2c1CCCCC2 [CBK287584] | 106.112
49 | Cc1cc2nnc(SC(C)c3nc(-c4ccccc4)no3)n2c(C)n1 (stereo not shown) [CBK298306] | 81.4219
50 | O=C(O)C1CC(=O)N(CCc2c[nH]c3ccc(Cl)cc23)C1 (stereo not shown) [CBK287211] | 141.121
51 | O=C(O)C1CCCCC1C(=O)NCCc1ccccc1 (stereo not shown) [CBK261707] | 121.51
52 | CN(C)CC1CCCN(C(=O)c2cc3cc(F)ccc3n2C)C1 (stereo not shown) [CBK282122] | 143.997
53 | CCc1nc2ccccc2n1CC(=O)O [CBK111477] | 150.4
54 | COC(=O)Cn1c(CN2CCN(c3cccc(Cl)c3)CC2)nc2c1c(=O)n(C)c(=O)n2C [CBK269598] | 129.514

6 compounds picked at random from those above:
Row | SMILES | % of control remaining [%]
39 | COc1cc(CN2CCN(C(=O)c3cccc(Cl)c3)CC2)cc(OC)c1OC [CBK074530] | 87.5358
48 | N#Cc1c(NC(=O)c2cccnc2)sc2c1CCCCC2 [CBK287584] | 106.112
43 | COc1cc(OC)c(NS(=O)(=O)c2cc(C(=O)O)ccc2C)cc1Cl [CBK296105] | 115.861
27 | CCN(CCO)c1ccc(Nc2nc(-c3ccc(F)c(Cl)c3)cn3ccnc23)cc1 [CBK038042] | 157.747
10 | O=C(NC1CC1)C1CCN(Cn2nnc3ccccc3c2=S)CC1 [CBK306342] | 94.7244
25 | COc1cccc2sc(Nc3nc(-c4cccs4)cs3)nc12 [CBK287469] | 77.3664

(list continues)

Row | SMILES | % of control remaining [%]
55 | COc1ccc(C(=O)NCCc2nc3ccccc3[nH]2)cc1 [CBK261040] | 93.4151
56 | O=C(NCCOc1ccccc1)N1CCN(c2ccccc2)CC1 [CBK155198] | 157.974
57 | CN1CCN(C(=O)CN(C)S(=O)(=O)c2ccc3ccccc3c2)CC1 [CBK267053] | 108.996
58 | FC(F)(F)c1ccc(Oc2ccc(-c3noc(-c4ccccn4)n3)cc2)nc1 [CBK270152] | 134.658
59 | O=C1CCC(=O)N1CCOc1nccnc1N1CCN(CC2CC2)CC1 [CBK084305] | 114.078
60 | Cc1ccccc1C1(O)CCN(C(=O)C(c2cccs2)c2cccs2)CC1 [CBK286483] | 108.505
61 | CC(=O)Nc1cccc(NC(=O)N(CCC#N)C2CCCCC2)c1 [CBK156367] | 115.539
62 | O=C(O)c1cccc(NC(=O)c2ccc(S(=O)(=O)N3CCCCC3)cc2)c1 [CBK265185] | 124.567
63 | O=C(NCCc1c[nH]c2ccccc12)NC(=O)C1CCNCC1 [CBK051094] | 111.579
64 | O=C(COc1ccc(Cl)cc1Cl)Nc1ccc2cc[nH]c2c1 [CBK160023] | 109.569
65 | O=C(Nc1ccc(F)cc1)N[C@H]1[C@H](O)[C@@H](N2CCCCC2)[C@@H]2OC[C@H]1O2 [CBK288826] | 135.886
66 | COc1ccccc1NC(=O)c1c(NC(=O)c2cccs2)sc2c1CCC(C(C)(C)C)C2 (stereo not shown) [CBK264123] | 112.231
67 | Cc1nn(CCC#N)c(C)c1[C@@H]1C=C[C@@H](NS(=O)(=O)c2ccccc2)C1 [CBK288805] | 112.58
68 | COc1ccc(C(=O)Nc2ccc(C(C)=O)cc2)cc1[N+](=O)[O-] [CBK262457] | 100
69 | COc1cccc(C(=O)/C=C\Nc2ccc(S(=O)(=O)Nc3onc(C)c3C)cc2)c1 [CBK264206] | 13.6439
70 | Cc1ccccc1-c1nnc(SC(C)C)n1CCNCCO [CBK200084T] | 147.947
71 | O=S(=O)(N1CCCCCC1)N1CCN(S(=O)(=O)N2CCOCC2)CC1 [CBK269152] | 145.9
72 | Cc1cc(N2CCCC(N(C)S(=O)(=O)c3cccc(F)c3)CC2)nc(C)n1 (stereo not shown) [CBK285935] | 105.425
73 | Cc1nc(=O)c(-c2ccccc2)c(C)n1-c1cccc(C(=O)O)c1 [CBK286965] | 129.285
74 | CC(C)(C)NC(=O)Cn1c(=O)n(Cc2cccs2)c2ncccc21 [CBK283844] | 110.816
75 | CN(C)CCOC(=O)c1ccc2[nH]c3c(c2c1)CSCC3 [CBK009731C] | 100
76 | CCNS(=O)(=O)c1ccc(CCC(=O)Nc2ccc3c(c2)OCO3)cc1 [CBK268367] | 146.366
77 | Cc1cc(CNC(=O)c2ccc3c(c2)OCO3)c2ccccc2n1 [CBK270014] | 99.8325
78 | COc1ccc(C2(C(=O)NCc3ccc(-c4ccc(C(N)=O)c(C)n4)cc3)CCCC2)cc1 [CBK285647] | 42.5522
79 | Fc1ccc(Sc2nc3ccccc3nc2N2CCCC2)cc1 [CBK089543] | 98.1829
